# US20090081195A1, “Inhibitors of Ste20-like Kinase (SLK) and Methods of Modulating Cell Cycle Progression and Cell Motility” (OTTAWA HEALTH RESEARCH INSTITUTE, priority 2005, published 2009)
# Chains of the proteins cited; added tags and fusions are not shown. Lines headed by an entry give the natural chain unless they say otherwise; changes in a name come on top.
# UniProt O54988: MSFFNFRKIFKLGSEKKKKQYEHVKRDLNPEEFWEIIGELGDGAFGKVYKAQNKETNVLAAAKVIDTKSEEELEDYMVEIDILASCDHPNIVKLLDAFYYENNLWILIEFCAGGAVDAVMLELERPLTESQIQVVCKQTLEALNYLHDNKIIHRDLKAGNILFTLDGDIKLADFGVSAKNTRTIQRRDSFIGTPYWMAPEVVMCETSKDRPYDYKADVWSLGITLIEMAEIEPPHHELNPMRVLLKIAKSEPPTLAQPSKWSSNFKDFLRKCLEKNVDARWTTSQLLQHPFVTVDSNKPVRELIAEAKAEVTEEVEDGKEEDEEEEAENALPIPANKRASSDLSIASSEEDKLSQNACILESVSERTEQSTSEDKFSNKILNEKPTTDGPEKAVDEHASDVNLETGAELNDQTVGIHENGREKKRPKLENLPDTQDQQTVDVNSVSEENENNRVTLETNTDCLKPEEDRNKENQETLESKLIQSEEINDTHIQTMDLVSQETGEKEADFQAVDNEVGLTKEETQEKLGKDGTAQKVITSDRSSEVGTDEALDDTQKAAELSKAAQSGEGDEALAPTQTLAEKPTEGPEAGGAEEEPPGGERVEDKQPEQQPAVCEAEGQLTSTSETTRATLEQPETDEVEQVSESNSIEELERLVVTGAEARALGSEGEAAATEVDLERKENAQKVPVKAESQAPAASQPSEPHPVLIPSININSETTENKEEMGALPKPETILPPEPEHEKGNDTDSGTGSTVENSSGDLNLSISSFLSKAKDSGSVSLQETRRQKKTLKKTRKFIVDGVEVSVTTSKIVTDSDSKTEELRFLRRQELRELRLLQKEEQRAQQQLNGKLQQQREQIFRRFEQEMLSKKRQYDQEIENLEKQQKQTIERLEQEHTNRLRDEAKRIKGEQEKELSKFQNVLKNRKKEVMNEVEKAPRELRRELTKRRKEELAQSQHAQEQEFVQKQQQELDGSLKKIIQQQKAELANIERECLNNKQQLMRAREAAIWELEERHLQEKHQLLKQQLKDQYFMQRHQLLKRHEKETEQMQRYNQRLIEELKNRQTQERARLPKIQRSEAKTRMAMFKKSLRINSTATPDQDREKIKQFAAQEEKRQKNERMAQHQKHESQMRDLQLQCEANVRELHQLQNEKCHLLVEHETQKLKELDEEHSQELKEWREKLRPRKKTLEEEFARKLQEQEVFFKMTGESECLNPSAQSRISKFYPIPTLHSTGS
# No constants are given. Whether binding was seen depends on the method and setting. For some assays here: Binding seen in cells or lysates may run through a third protein. Some entries that bind do so weakly or less than the wild type. For some assays here: Sequences can lack the tags named with a protein.
# T1: Ldb2 (construct not stated) (mouse) (UniProt O55203)
# T1 sequence (looked up): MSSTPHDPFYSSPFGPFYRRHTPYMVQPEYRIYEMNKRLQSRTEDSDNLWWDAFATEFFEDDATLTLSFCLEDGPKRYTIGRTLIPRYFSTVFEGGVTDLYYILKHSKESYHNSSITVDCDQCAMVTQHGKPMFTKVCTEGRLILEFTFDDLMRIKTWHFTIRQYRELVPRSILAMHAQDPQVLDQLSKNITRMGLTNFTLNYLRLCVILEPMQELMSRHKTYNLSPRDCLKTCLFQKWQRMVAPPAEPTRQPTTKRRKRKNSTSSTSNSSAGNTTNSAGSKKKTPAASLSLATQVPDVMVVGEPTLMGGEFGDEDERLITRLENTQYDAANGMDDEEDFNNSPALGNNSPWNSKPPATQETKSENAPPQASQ
# Key:
# [1] = target: GST-ATH N-terminus (murine) (UniProt O54988); experiment: GST pulldown of [35S]-labeled in vitro translated Ldb2
# GST-SLK 1-950 (murine) = GST-SLK 1-950 (murine) (UniProt O54988); experiment: GST pulldown of [35S]-labeled in vitro translated Ldb2, SDS-PAGE and autoradiography
# [2] = target: GST-SLK 950-1202 (GST-tagged SLK ATH domain) (murine) (UniProt O54988); experiment: as above
# [3] = target: GST-SLK 950-1202 (GST-tagged SLK ATH domain) (murine) (UniProt O54988); experiment: GST pulldown of [35S]-labeled in vitro translated Ldb1
# [4] = target: GST-ATH N-terminus (murine) (UniProt O54988); experiment: GST pulldown of in vitro translated Ldb1 with GST-MNAP-C, GST-ATH-N, GST-ATH-C
# [5] = target: Myc-SLK 373-1202 (murine) (UniProt O54988); experiment: co-immunoprecipitation from co-transfected HEK 293 cells (anti-HA IP, anti-Myc blot)
# [6] = target: Myc-SLK 950-1202 (murine) (UniProt O54988); experiment: as above
# [7] = target: Myc-SLK 373-1202 (murine) (UniProt O54988); experiment: co-immunoprecipitation from co-transfected HEK 293 cells (anti-HA 12CA5 IP, anti-Myc 9E10 blot)
# [8] = target: Myc-SLK 950-1202 (murine) (UniProt O54988); experiment: as above
# [9] = target: Myc-SLK 373-1202 (murine) (UniProt O54988); experiment: co-immunoprecipitation from co-transfected cells
# [10] = target: Myc-SLK 950-1202 (murine) (UniProt O54988); experiment: co-immunoprecipitation from co-transfected cells
# [11] = target: HA-SLK (full length) (murine) (UniProt O54988); experiment: reciprocal co-immunoprecipitation
# [12] = target: endogenous SLK (mouse (MEFs); rat (primary cortical neurons)) (UniProt O54988); experiment: IP-Western (FIG. 11B)
# [13] = target: endogenous SLK (mouse (MEFs); rat (primary cortical neurons)) (UniProt O54988); experiment: IP-western of endogenous proteins
# [14] = target: endogenous SLK (mouse (MEFs); rat (primary cortical neurons)) (UniProt O54988); experiment: IP-western of endogenous proteins from MEFs, primary neurons, N1E 115 cells (both directions)
# [15] = target: SLK (construct not stated) (murine) (UniProt O54988); experiment: binding assays of FIG. 11
# [16] = target: T1, Ldb2 (construct not stated) (mouse); experiment: co-immunoprecipitation of tagged proteins
binder,measurement,setting,value
"in vitro translated [35S]-labeled Ldb2 (protein, mouse, UniProt O55203 1-373, looked up, [35S]-methionine label) MSSTPHDPFYSSPFGPFYRRHTPYMVQPEYRIYEMNKRLQSRTEDSDNLWWDAFATEFFEDDATLTLSFCLEDGPKRYTIGRTLIPRYFSTVFEGGVTDLYYILKHSKESYHNSSITVDCDQCAMVTQHGKPMFTKVCTEGRLILEFTFDDLMRIKTWHFTIRQYRELVPRSILAMHAQDPQVLDQLSKNITRMGLTNFTLNYLRLCVILEPMQELMSRHKTYNLSPRDCLKTCLFQKWQRMVAPPAEPTRQPTTKRRKRKNSTSSTSNSSAGNTTNSAGSKKKTPAASLSLATQVPDVMVVGEPTLMGGEFGDEDERLITRLENTQYDAANGMDDEEDFNNSPALGNNSPWNSKPPATQETKSENAPPQASQ",binding,[1],binds
same,binding,GST-SLK 1-950 (murine),binds
same,binding,[2],binds
"in vitro translated [35S]-labeled Ldb1 (protein, mouse, UniProt P70662-3 1-375, looked up, [35S]-methionine label) MLDRDVGPTPMYPPTYLEPGIGRHTPYGNQTDYRIFELNKRLQNWTEECDNLWWDAFTTEFFEDDAMLTITFCLEDGPKRYTIGRTLIPRYFRSIFEGGATELYYVLKHPKEAFHSNFVSLDCDQGSMVTQHGKPMFTQVCVEGRLYLEFMFDDMMRIKTWHFSIRQHRELIPRSILAMHAQDPQMLDQLSKNITRCGLSNSTLNYLRLCVILEPMQELMSRHKTYSLSPRDCLKTCLFQKWQRMVAPPAEPARQQPSKRRKRKMSGGSTMSSGGGNTNNSNSKKKSPASTFALSSQVPDVMVVGEPTLMGGEFGDEDERLITRLENTQFDAANGIDDEDSFNNSPALGANSPWNSKPPSSQESKSENPTSQASQ",binding,[3],binds
same,binding,[4],binds
"HA-tagged Ldb2 (protein, mouse, UniProt O55203 1-373, looked up, not shown: small tags and cut ends) MSSTPHDPFYSSPFGPFYRRHTPYMVQPEYRIYEMNKRLQSRTEDSDNLWWDAFATEFFEDDATLTLSFCLEDGPKRYTIGRTLIPRYFSTVFEGGVTDLYYILKHSKESYHNSSITVDCDQCAMVTQHGKPMFTKVCTEGRLILEFTFDDLMRIKTWHFTIRQYRELVPRSILAMHAQDPQVLDQLSKNITRMGLTNFTLNYLRLCVILEPMQELMSRHKTYNLSPRDCLKTCLFQKWQRMVAPPAEPTRQPTTKRRKRKNSTSSTSNSSAGNTTNSAGSKKKTPAASLSLATQVPDVMVVGEPTLMGGEFGDEDERLITRLENTQYDAANGMDDEEDFNNSPALGNNSPWNSKPPATQETKSENAPPQASQ",binding,[5],binds
same,binding,[6],binds
same,binding,[7],binds
same,binding,[8],binds
"HA-tagged Ldb1 (protein, mouse, UniProt P70662-3 1-375, looked up, not shown: small tags and cut ends) MLDRDVGPTPMYPPTYLEPGIGRHTPYGNQTDYRIFELNKRLQNWTEECDNLWWDAFTTEFFEDDAMLTITFCLEDGPKRYTIGRTLIPRYFRSIFEGGATELYYVLKHPKEAFHSNFVSLDCDQGSMVTQHGKPMFTQVCVEGRLYLEFMFDDMMRIKTWHFSIRQHRELIPRSILAMHAQDPQMLDQLSKNITRCGLSNSTLNYLRLCVILEPMQELMSRHKTYSLSPRDCLKTCLFQKWQRMVAPPAEPARQQPSKRRKRKMSGGSTMSSGGGNTNNSNSKKKSPASTFALSSQVPDVMVVGEPTLMGGEFGDEDERLITRLENTQFDAANGIDDEDSFNNSPALGANSPWNSKPPSSQESKSENPTSQASQ",binding,[9],binds
same,binding,[10],binds
"Myc-Ldb1 (protein, mouse, UniProt P70662-3 1-375, looked up, not shown: small tags and cut ends) MLDRDVGPTPMYPPTYLEPGIGRHTPYGNQTDYRIFELNKRLQNWTEECDNLWWDAFTTEFFEDDAMLTITFCLEDGPKRYTIGRTLIPRYFRSIFEGGATELYYVLKHPKEAFHSNFVSLDCDQGSMVTQHGKPMFTQVCVEGRLYLEFMFDDMMRIKTWHFSIRQHRELIPRSILAMHAQDPQMLDQLSKNITRCGLSNSTLNYLRLCVILEPMQELMSRHKTYSLSPRDCLKTCLFQKWQRMVAPPAEPARQQPSKRRKRKMSGGSTMSSGGGNTNNSNSKKKSPASTFALSSQVPDVMVVGEPTLMGGEFGDEDERLITRLENTQFDAANGIDDEDSFNNSPALGANSPWNSKPPSSQESKSENPTSQASQ",binding,[11],binds
"endogenous Ldb1 (protein, UniProt P70662-3 1-375, looked up) MLDRDVGPTPMYPPTYLEPGIGRHTPYGNQTDYRIFELNKRLQNWTEECDNLWWDAFTTEFFEDDAMLTITFCLEDGPKRYTIGRTLIPRYFRSIFEGGATELYYVLKHPKEAFHSNFVSLDCDQGSMVTQHGKPMFTQVCVEGRLYLEFMFDDMMRIKTWHFSIRQHRELIPRSILAMHAQDPQMLDQLSKNITRCGLSNSTLNYLRLCVILEPMQELMSRHKTYSLSPRDCLKTCLFQKWQRMVAPPAEPARQQPSKRRKRKMSGGSTMSSGGGNTNNSNSKKKSPASTFALSSQVPDVMVVGEPTLMGGEFGDEDERLITRLENTQFDAANGIDDEDSFNNSPALGANSPWNSKPPSSQESKSENPTSQASQ",binding,[12],binds
same,binding,[13],binds
same,binding,[14],binds
"Ldb1 (construct not stated) (protein, mouse, UniProt P70662-3 1-375, looked up) MLDRDVGPTPMYPPTYLEPGIGRHTPYGNQTDYRIFELNKRLQNWTEECDNLWWDAFTTEFFEDDAMLTITFCLEDGPKRYTIGRTLIPRYFRSIFEGGATELYYVLKHPKEAFHSNFVSLDCDQGSMVTQHGKPMFTQVCVEGRLYLEFMFDDMMRIKTWHFSIRQHRELIPRSILAMHAQDPQMLDQLSKNITRCGLSNSTLNYLRLCVILEPMQELMSRHKTYSLSPRDCLKTCLFQKWQRMVAPPAEPARQQPSKRRKRKMSGGSTMSSGGGNTNNSNSKKKSPASTFALSSQVPDVMVVGEPTLMGGEFGDEDERLITRLENTQFDAANGIDDEDSFNNSPALGANSPWNSKPPSSQESKSENPTSQASQ",binding,[15],binds
same,binding,[16],binds
